Data published in PubChem BioAssay AID2685 (National Center for Advancing Translational Sciences (NCATS), 2010).
Screen size: about 320,000 compounds; about 2,100 (0.66%) were called active. Inconclusive means that the source gave no clear call. Such entries were picked first, then a sample of the others. Calls follow the shape of the dose curve; as a rule, active = well fitted inhibition curve with a large enough effect in the signal ratio, with a control signal flat (not every such curve was filed as active); inconclusive = small, poorly fitted or top-dose-only effect, or effect the other way, or a change in a side signal; inactive = flat fitted curve, though single readings scatter; the % refers to the signal ratio. A potency beside an inconclusive call is a rough fit, not a confirmed value.

Test: qHTS Assay for Lipid Storage Modulators in Drosophila S3 Cells
Settings: BODIPY lipid droplet fluorescence, 18-24 h, cells fed with added oleic acid; lipid storage change, negative = inhibition: at 46.1 µM (top of the series) unless noted
Summary of the method: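 Drosophila S3 cells loaded with oleic acid (400 uM, as added) and compounds at several concentrations; lipid droplets imaged by 488-nm laser-scanning cytometry, 500–530 nm intensity and object ratio to cell channel. Percent activity normalized to 20 uM Triacsin C.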
% is scaled to controls: 0 for no effect and ±100 for the full control effect; potency is read from the fitted curve at half-maximal effect.

Structure (SMILES) | lipid storage change, negative = inhibition | Potency | outcome
CCN1C(=O)C(CC(=O)Nc2ccc(F)cc2)N(Cc2ccco2)C1=S (centres undefined) | inconclusive: -41.5% [at 0.369 µM] | – | –
CCS(=O)(=O)N1CCCC(C(=O)NCCc2ccccc2)C1 (centres undefined) | – | active: 25.9 µM | –
C=CCOc1ccc(C(=O)Nc2ccccc2C(=O)NCc2cccnc2)cc1 | – | active: 3.26 µM | –
Cc1ccc(S(=O)(=O)N2CCOC2CNC(=O)C(=O)NCCCc2ccccc2)cc1 (centres undefined) | – | inconclusive: 18.4 µM [falling, single point] | –
Cn1c(=O)c2c(nc(NCc3ccc4c(c3)OCO4)n2Cc2ccccc2)n(C)c1=O | inconclusive: -139% | – | –
COc1cccc(NC(=O)CN(C)C(=O)c2cc(S(=O)(=O)NCc3ccccc3)ccc2C)c1 | – | inconclusive: 6.51 µM [activator, single point] | –
CC(=O)c1ccc(NC(=S)N2CCN(S(=O)(=O)c3ccc(F)cc3)CC2)cc1 | inconclusive: 4.56% | – | –
O=Cc1cn(-c2ccccc2)nc1-c1cccnc1 | inconclusive: -4.64% | – | –
COc1ccccc1-c1nc(S(=O)(=O)c2ccccc2)c(N2CCCCC2)o1 | – | active: 4.11 µM | –
Cc1cc(C)nc(-n2ncc3c2CC(c2ccc(C(C)C)cc2)CC3=O)n1 (centres undefined) | inconclusive: 13.9% | – | –
O=C(NC1CCN(C(=O)Nc2ccc(F)cc2)CC1)c1ccccc1F | – | active: 6.51 µM | –
Cc1cccc2sc(NC(=O)C3CCCN(S(=O)(=O)c4cccc5nonc45)C3)nc12 (centres undefined) | inconclusive: -19.7% | – | –
CCCn1cc(S(=O)(=O)c2ccc(OC)cc2)c(=O)c2cc(OC)ccc21 | inconclusive: -2.76% | – | –
O=C(NNC(=S)Nc1ccc(F)cc1F)c1ccco1 | inconclusive: -16.8% | – | –
CCCn1c(=N)n(CC(=O)c2ccc(Cl)cc2)c2ccccc21 | inconclusive: -34.6% | – | –
Cc1c(OCc2ccccc2)c(=O)ccn1Cc1ccc(Cl)cc1 | – | inconclusive: 18.4 µM [cytotoxic, single point] | –
CCOc1cccc(N(C(=O)CCC(=O)Nc2cc(C)on2)C(C(=O)NC(C)(C)C)c2ccc(OC)cc2)c1 (centres undefined) | – | inconclusive: 5.17 µM [activator, single point] | –
Cc1[nH]n(-c2ccccc2)c(=O)c1N=Nc1cccc(Cl)c1 | – | inconclusive: 2.31 µM [falling, partial curve] | –
C[C@H](NC(=O)c1nc[nH]c1C(=O)N[C@@H](CCCCNC(=O)OC(C)(C)C)C(=O)OC(C)(C)C)C(=O)OCc1ccccc1 | – | inconclusive: 6.51 µM [falling, single point] | –
O=C(CC1C(=O)NCCN1Cc1ccccc1)NCCCOc1cccnc1 (centres undefined) | inconclusive: -130% | – | –
CCCCCC(=O)NC(=S)Nc1ccc(Cl)cn1 | inconclusive: 2.08% | – | –
COc1cccc(NC(=O)CN2CCc3ccccc3C2)c1 | – | inconclusive: 11.6 µM [activator, partial curve] | –
COc1cccc(CSc2nc3sc(C)c(C)c3c(=O)n2Cc2ccco2)c1 | – | inconclusive: 8.2 µM [activator, partial curve] | –
Cc1nc(N)ncc1C(=O)Nc1ccccc1 | inconclusive: -6.71% | – | –
CCOc1cc(S(=O)(=O)NCc2ccc3c(c2)OCO3)c(C)cc1C | inconclusive: 31.7% | – | –

Structure (SMILES) | lipid storage change, negative = inhibition | Potency | outcome
COC(=O)CSc1nnc(CNS(=O)(=O)c2ccc(Cl)cc2)n1C | – | active: 20.6 µM | –
COC(=O)c1c(C)oc2ccc(N(C(=O)c3ccncc3)S(=O)(=O)c3ccc(C)cc3)cc12 | – | inconclusive: 2.06 µM [activator, partial curve] | –
CSCCC(=O)N1CCCC(N2CCN(c3cccc(C(F)(F)F)c3)CC2)C1 (centres undefined) | inconclusive: -7.09% | – | –
Cc1ccc(C(C(=O)NC2CCCCC2)N(C(=O)Cc2c[nH]c3ccccc23)c2ccccc2)o1 (centres undefined) | inconclusive: -56.2% | – | –
CN1CCN(S(=O)(=O)c2ccc(NC(=S)NC(=O)C(C)(C)C)cc2)CC1 | inconclusive: -29.9% | – | –
O=C1CCC(O)CCN1CCSc1ccccc1 (centres undefined) | – | inconclusive: 6.51 µM [activator, full curve, poor fit] | –
CCOC(=O)COc1ccccc1C1Nc2ccccc2C(=O)N1c1cccc(Cl)c1 (centres undefined) | inactive: -10% | – | –
COCCN(C(=O)CCC(=O)Nc1nccs1)C(C(=O)NC(C)(C)C)c1ccc(F)cc1 (centres undefined) | inactive: -2.68% | – | –
CC1(C)CC(=O)C(CO)=C(c2cccc3ccccc23)C1=O | inconclusive: -6.77% | – | –
CC1CCC(NC(=O)CCNC(=O)c2ccc(Br)cc2)CC1 (centres undefined) | inconclusive: -34.1% [at 0.0737 µM] | – | –
CC(Oc1cccc(Cl)c1)C(=O)Nc1cc(Cl)ccc1N1CCOCC1 (centres undefined) | inconclusive: 4.64% | – | –
COC(=O)c1c(NC(=O)CN2CCCc3ccccc32)sc(C)c1C | – | inconclusive: 6.51 µM [activator, single point] | –
Cc1ccc(NC(=O)c2cccnc2)cc1S(=O)(=O)N1CCOCC1 | – | inconclusive: 4.11 µM [activator, partial curve] | –
CC1(C)CC(=O)N(c2cccc(C(F)(F)F)c2)C(=O)C1 | inconclusive: -0.775% | – | –
Cc1[nH]n(-c2ccccc2)c(=O)c1CCOC(=O)c1ccc(C(F)(F)F)cc1 | inconclusive: -6.26% | – | –
Cc1ccc2nc(SC(C)C(=O)NC3CCCc4ccccc43)[nH]c2c1 (centres undefined) | – | inconclusive: 25.9 µM [falling, single point] | –
Cc1c(C)n(C)c2ccc(C(=O)NCCCN3CCN(c4ccc(F)cc4)CC3)cc12 | inactive: 8.52% | – | –
CCOc1ccc(S(=O)(=O)N2CCC(C(=O)N3CCCCCC3)CC2)cc1C | inconclusive: 5.52% | – | –
CCCn1c(CC)nc([N+](=O)[O-])c1Sc1ccc(C)cc1 | – | inconclusive: 0.146 µM [activator, single point] | –
COc1ccc(Cn2nnnc2C(C(C)C)N2CCN(c3ccccc3OC)CC2)cc1 (centres undefined) | inconclusive: 65.5% | – | –
Cc1ccc(N(C(=O)CNC(=O)c2ccco2)C(C(=O)NC2CCCC2)c2cccnc2)c(C)c1 (centres undefined) | – | inconclusive: 0.13 µM [falling, partial curve, poor fit] | –
O=C(C1CCCN(S(=O)(=O)c2ccc(Br)s2)C1)N1CCN(c2ccccc2)CC1 (centres undefined) | – | inconclusive: 0.0326 µM [falling, full curve, poor fit] | –
C=CCc1ccccc1OCCn1nnc2ccccc21 | inactive: -11.5% | – | –
C/C(N)=C(/C#N)C(=O)COC(=O)[C@@H](NC(=O)c1ccccc1Cl)C(C)C | inconclusive: 26.1% | – | –
CC(=O)N1CCN(S(=O)(=O)c2cccc(C(=O)NCCC3=CCCCC3)c2)CC1 | – | inconclusive: 5.8 µM [falling, single point] | –

Structure (SMILES) | lipid storage change, negative = inhibition | Potency | outcome
COc1ccc(S(=O)(=O)N(CC(=O)N2CCCCCC2)c2ccccc2OC)cc1 | – | inconclusive: 0.146 µM [activator, full curve, poor fit] | –
Fc1cc(F)nc(NCc2ccccc2)n1 | inconclusive: -18% | – | –
COc1ccc2nc(C)cc(SCC(=O)OC(C)C)c2c1 | inconclusive: -17.1% | – | –
Cc1cc(C(=O)Nc2nc3c(C)cccc3s2)c(C)o1 | – | inconclusive: 8.2 µM [activator, partial curve] | –
Cc1cccc(N=Nc2c(O)[nH]c3ccc(F)cc23)c1 | – | inconclusive: 29.1 µM [falling, single point] | –
Cc1cccc(C(=O)NC(CC(=O)O)c2ccc(OC3CCCC3)cc2)c1[N+](=O)[O-] (centres undefined) | inconclusive: -0.542% | – | –
CC(=O)NCCc1nc2cc(NC(=O)c3ccccc3Cl)ccc2n1C | inconclusive: 15.1% | – | –
CCOc1ccc(N(CC(=O)NCCOc2ccc(C)cc2)S(=O)(=O)c2ccccc2)cc1 | inactive: 2.62% | – | –
O=C(C1=C[C@H](c2ccccc2)C[C@H](OCCCCO)O1)N1CCN(Cc2ccc3c(c2)OCO3)CC1 | – | inconclusive: 0.259 µM [falling, full curve, poor fit] | –
Clc1ccc(CSc2nnc3ccccn23)c(Cl)c1 | inconclusive: 20.4% | – | –
Cc1cc(C)c2[nH]c3nc(SCC(=O)O)nnc3c2c1 | – | – | inactive [at 46.1 µM]
CCN(CC)c1ccc(/C=C2\C(=O)N(c3nnc(C)c(=O)[nH]3)N=C2C)cc1 | inconclusive: -22.3% | – | –
O=C(COC(=O)CCc1nc2ccccc2c(=O)[nH]1)NC1CCS(=O)(=O)C1 (centres undefined) | inconclusive: -34.3% | – | –
CN1CCN(C(c2ccccn2)c2cc(Cl)c3cccnc3c2O)CC1 (centres undefined) | – | – | inactive [at 46.1 µM]
Cc1cc(Cl)nc(-c2ccccc2)n1 | inconclusive: 18.9% | – | –
CCC1(c2ccccc2)NC(=O)N(CC(=O)NCc2ccc(OC)cc2)C1=O (centres undefined) | – | inconclusive: 0.116 µM [activator, full curve, poor fit] | –
CCOC(=O)c1sc(NC(=O)CSc2n[nH]c(CC)n2)nc1C | – | inconclusive: 29.1 µM [cytotoxic, single point] | –
CN(C(=O)COC(=O)c1cccc(NS(=O)(=O)c2ccc(F)c(F)c2)c1)C1CCS(=O)(=O)C1 (centres undefined) | – | inconclusive: 29.1 µM [activator, single point] | –
Cc1ccc(Nc2nc(N)nc(CN3CCc4ccccc4C3)n2)cc1 | – | inconclusive: 18.4 µM [rising, single point] | –
CCN1CCN(S(=O)(=O)c2ccc(Cl)c(C(=O)N(CC)CC(=O)Nc3ccc(OC)cc3)c2)CC1 | – | inconclusive: 2.59 µM [activator, partial curve, poor fit] | –
COc1cc(-c2[nH]ncc2CN2CCN(c3cccc(C)n3)CC2)cc(OC)c1OC | inconclusive: -42.6% | – | –
COc1ccc2c(c1OC)C(=O)OC2C1c2c(cc3c(c2OC)OCO3)CCN1C (centres undefined) | inconclusive: 15.5% | inconclusive: 2.31 µM [activator, partial curve] | –
O=S(=O)(c1ccccc1)N(CC(O)CN1CCOCC1)c1ccccc1 (centres undefined) | inconclusive: -8.34% | – | –

Whole records, quoted from the list.
`Cc1cccc(N=Nc2c(O)[nH]c3ccc(F)cc23)c1` reads Potency: inconclusive: 29.1 µM [falling, single point]
`CC(=O)NCCc1nc2cc(NC(=O)c3ccccc3Cl)ccc2n1C` reads lipid storage change, negative = inhibition: inconclusive: 15.1%
`CCN(CC)c1ccc(/C=C2\C(=O)N(c3nnc(C)c(=O)[nH]3)N=C2C)cc1` reads lipid storage change, negative = inhibition: inconclusive: -22.3%
`O=S(=O)(c1ccccc1)N(CC(O)CN1CCOCC1)c1ccccc1` (centres undefined) reads lipid storage change, negative = inhibition: inconclusive: -8.34%
